Some of the results follow. The main result of the screen is listed elsewhere. These columns were measured beside it and carry no call. Most of these compounds were active or inconclusive in the main read-out, so they are no random draw. Words in brackets tell the shape of the fitted curve; partial curves, single points and poor fits give uncertain potencies.
Assay: qHTS Assay for Lipid Storage Modulators in Drosophila S3 Cells;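 for cell number change: cells counted by Cell Tracker Red CMTPX staining in the red channel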
Details: BODIPY lipid droplet fluorescence, 18-24 h; for cell number change: measured here: cell count max response, cells fed with added oleic acid
How it was run: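 Drosophila S3 cells got compounds at several concentrations plus oleic acid (400 uM solution). Laser-scanning cytometry with 488 nm excitation read lipid droplets at 500-530 nm and cells at 575-640 nm. Percent activity was relative to 20 uM Triacsin C.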

[1] = measured here: lipid fluorescence (Fed channel) AC50, cells fed with added oleic acid
[2] = measured here: cell number channel AC50, cells fed with added oleic acid

SMILES | cell number change | AC50 [1] | AC50 [2]
COc1ccc(OC)c(NC(=O)CN2CCC(C(=O)c3ccc(C)cc3)CC2)c1 | -2.71% | 5.8 µM [rising, full curve] | –
CN1CCC(=NNC(=O)CN(c2cccc([N+](=O)[O-])c2)S(=O)(=O)c2ccccc2)CC1 | -23.8% | 6.51 µM [falling, single point] | –
CCc1ccccc1NC(=O)c1ccc(Cn2cc([N+](=O)[O-])cn2)cc1 | 19.4% | – | 0.116 µM [rising, full curve, poor fit]
O=C(O)c1ccc(N2CCCC2=O)cc1 | – | 0.651 µM [rising, single point] | –
CCOCCCN(C(=O)CNC(=O)c1ccco1)C(C(=O)NC1CCCC1)c1cccc(OC)c1 (stereo not given) | -36.5% | – | 0.259 µM [falling, full curve]
O=C(C=C1CCN(c2ncc(C(F)(F)F)cc2Cl)CC1)NNC(=O)Nc1ccccc1 | -19.9% | 6.51 µM [falling, single point] | 4.11 µM [falling, full curve, poor fit]
CC(=O)Nc1ccc(S(=O)(=O)N2CCCC(C(=O)N3CCN(c4ccccc4)CC3)C2)cc1 (stereo not given) | -54.1% | – | 16.4 µM [falling, partial curve]
CCN(CC)S(=O)(=O)c1ccc2c(c1)c(=O)c(C(=O)NCCc1ccc(OC)c(OC)c1)cn2C | -18.1% | – | –
O=C(Nc1cnc2ccccn2c1=O)c1ccc(F)cc1 | -27.3% | – | –
CCn1c(SCC(=O)NCC2CCCO2)nc2cc(S(=O)(=O)N3CCCCC3)ccc21 (stereo not given) | 0.698% | 13 µM [rising, partial curve] | –
CCc1c(C)nc2ncnn2c1N1CCCC(C(=O)NCc2ccco2)C1 (stereo not given) | -6.62% | – | 0.58 µM [rising, partial curve]
COc1ccc(C(C)=O)cc1CSCC(=O)O | -7.93% | – | –
CCOC(=O)c1nnn(-c2nonc2N)c1COc1cc(C)c(Cl)c(C)c1 | -128% | 29.1 µM [falling, single point] | 29.1 µM [falling, single point]
O=C(NCCCN1CCCC1=O)[C@H](CSCc1ccccc1)N1Cc2ccccc2C1=O | -11% | 0.0651 µM [falling, full curve, poor fit] | –
Cn1ncc(Br)c1C(=O)N/N=C/c1cccc(OC2CSC2)c1 | -2.31% | 29.1 µM [falling, single point] | –
Cc1cc([N+](=O)[O-])nn1Cc1noc(C(=O)NCCCn2ccnc2)n1 | 3.91% | 1.46 µM [falling, partial curve] | –
CCC(=O)Nc1ccc(Cl)c(NC(=S)NC(=O)c2cc3ccccc3o2)c1 | -46% | 4.11 µM [falling, partial curve, poor fit] | 2.91 µM [falling, full curve]
CCn1c(SCC(=O)NC2CC2)nnc1-c1ccc(C)cc1 | 1.94% | 1.64 µM [rising, partial curve, poor fit] | –
O=C(COc1ccccc1C(=O)c1cnn(-c2ccccc2)c1)Nc1ccc2ccccc2c1 | 12.9% | 25.9 µM [rising, single point] | –
CN(CCOc1ccccc1)S(=O)(=O)c1ccccc1C#N | -1.23% | 4.11 µM [rising, single point] | 0.164 µM [rising, full curve, poor fit]

3 of the compounds above, as a markdown table.

| SMILES | cell number change | AC50 [1] | AC50 [2] |
| --- | --- | --- | --- |
| CCc1c(C)nc2ncnn2c1N1CCCC(C(=O)NCc2ccco2)C1 (stereo not given) | -6.62% | – | 0.58 µM [rising, partial curve] |
| COc1ccc(C(C)=O)cc1CSCC(=O)O | -7.93% | – | – |
| CCOC(=O)c1nnn(-c2nonc2N)c1COc1cc(C)c(Cl)c(C)c1 | -128% | 29.1 µM [falling, single point] | 29.1 µM [falling, single point] |

Further records follow.

SMILES | cell number change | AC50 [1] | AC50 [2]
c1cncc(CNc2nc(N3CCOCC3)nc(N3CCOCC3)n2)c1 | -49.2% | – | 25.9 µM [falling, partial curve]
CCCCc1nc2ccccc2c(=O)n1NC(=O)c1c(O)c2c(n(CC(C)C)c1=O)CCCC2 | 3.93% | 3.66 µM [rising, single point] | –
Cn1c(CSc2ncn[nH]2)nc2ccccc21 | 2.86% | – | –
Cn1nnnc1SCC1=C(C(=O)O)N2C(=O)C(NC(=O)Cn3nc(C(F)F)cc3C3CC3)C2SC1 (stereo not given) | 4.53% | 0.082 µM [falling, full curve, poor fit] | –
O=C(Nc1nccs1)c1ccc([N+](=O)[O-])cc1 | 28.3% | 1.64 µM [rising, full curve, poor fit] | –
CS(=O)(=O)N1CCN(c2ccc(NC(=O)C(c3ccccc3)c3ccccc3)cc2)CC1 | -31.6% | 29.1 µM [falling, single point] | 23.1 µM [falling, single point]
COc1ccc(CNC2CC(=O)N(C)C2=O)cc1 (stereo not given) | 18.8% | 25.9 µM [falling, partial curve, poor fit] | –
CC1=NNC(=O)C1CC(=O)N/N=C/C(C)=C/c1ccccc1 (stereo not given) | -45.5% | 13 µM [falling, partial curve] | 32.6 µM [falling, partial curve]
O=C(COc1ccc(-c2ccccc2)cc1)NNC(=O)Nc1ccccc1 | -2.48% | 0.231 µM [rising, full curve, poor fit] | –
COC(=O)C1CCN(Cc2ccc(OCCCN3CCN(c4ccc([N+](=O)[O-])cc4)CC3)cc2)CC1 | -30% | 29.1 µM [falling, single point] | 29.1 µM [falling, single point]
CCN(c1ccccc1)S(=O)(=O)c1cccc(C(=O)NCCN2CCOCC2)c1 | 28% | 1.64 µM [rising, partial curve] | –
O=C(CSc1nnnn1C1CC1)N1CCN(c2ccccc2F)CC1 | -10.5% | 0.731 µM [rising, single point] | –
O=C(Nc1cccc2ncccc12)c1ccc(-c2ccc(Cl)cc2Cl)o1 | 127% | 29.1 µM [rising, single point] | 25.9 µM [rising, single point]
O=C1c2ccccc2-c2c1cccc2C(=O)N(CCO)CCO | – | 23.1 µM [falling, partial curve, poor fit] | –
Cn1cc(C(=O)NC2CCCCC2)c(=O)c2cc(S(=O)(=O)N3CCCC3)ccc21 | 2.84% | 2.31 µM [rising, full curve] | –
CCCC(C(=O)NCC1CCCO1)N(Cc1ccco1)C(=O)CNS(=O)(=O)c1ccccc1 (stereo not given) | 15.4% | – | –
CSc1cccc(Nc2ccc(S(=O)(=O)N3CCOCC3)cc2[N+](=O)[O-])c1 | -37.9% | 0.116 µM [falling, full curve, poor fit] | 32.6 µM [falling, single point]
CCCCN(CC)CCNC(=O)c1cc2c(=O)[nH]c3ccc(C)cc3c2s1 | 59.5% | 11.6 µM [rising, partial curve] | 23.1 µM [rising, single point]
O=C(CSc1nc(Nc2ccccc2)nc(N2CCOCC2)n1)Nc1cc(Cl)ccc1O | -1.16% | 4.61 µM [falling, single point] | –
COc1ccc(N2C(=O)C3CCCN3C2c2cccc(OC)c2OC)cc1 (stereo not given) | -35% | – | –

SMILES | cell number change | AC50 [1] | AC50 [2]
CCC(C)[C@H](NC(=O)[C@@H]1Cc2ccccc2CN1)C(=O)NCc1ccc(OC)cc1 (stereo not given in full) | 8.92% | – | –
Cn1nc(-c2ccc(C(=O)Nc3cccnc3)cc2)c2ccccc2c1=O | 95% | 4.61 µM [rising, partial curve] | 3.26 µM [rising, partial curve]
CCc1cc2c(NC(Cc3c[nH]c4ccccc34)C(=O)O)nc(C)nc2s1 (stereo not given) | 35.7% | 16.4 µM [rising, partial curve] | 3.66 µM [rising, partial curve]
Fc1cccc(CNc2ncnc3ccc(-c4ccc5c(c4)OCO5)cc23)c1 | -8.78% | – | –
COc1ccc(CC(=O)Nc2ccc3c(c2)OCO3)cc1S(=O)(=O)N1CCOCC1 | 33.1% | 2.31 µM [rising, partial curve] | 1.3 µM [rising, full curve, poor fit]
Cc1ccc(C(=O)N/C(=C\c2cccs2)C(=O)NCC2CCCO2)cc1C (stereo not given) | 4.62% | – | –
CCc1nnc(NC(=O)CCC(=O)Nc2ccccc2)s1 | -5.7% | 0.411 µM [falling, partial curve, poor fit] | –
COc1ccc(S(=O)(=O)N2CCCC2CNC(=O)C(=O)NCc2ccc3c(c2)OCO3)cc1 (stereo not given) | -2.01% | – | –
Cc1ccc(C(=O)NNC(=S)NC(=O)c2ccco2)cc1 | -11% | 32.6 µM [falling, single point] | –
O=C(Nc1ccc(F)cc1F)c1cccc(S(=O)(=O)N2CCCCC2)c1 | -2.2% | 3.26 µM [falling, single point] | –
O=c1[nH]c2cc3c(cc2cc1CN(Cc1cccnc1)Cc1nnnn1Cc1ccco1)OCCO3 | – | 6.51 µM [rising, single point] | –
CCOc1ccc(S(=O)(=O)N(CC(=O)Nc2cccnc2)c2ccc(F)cc2)cc1 | -39.6% | – | 29.1 µM [falling, single point]
COC(=O)c1sc(NC(C)=O)c(C(=O)OC)c1C | -7.5% | 1.46 µM [rising, full curve, poor fit] | –
Cc1cc(N2CCN(S(=O)(=O)c3ccccc3)CC2)c2ccccc2n1 | -23.6% | 29.1 µM [rising, single point] | –
COc1cccc(CNC(=O)CSCC(=O)Nc2cc(C)on2)c1 | -50% | – | 0.146 µM [falling, full curve, poor fit]
O=c1[nH]nc(SCc2nnc(-c3cccc(Cl)c3)o2)n1C1CCCCC1 | -35.9% | – | 0.00461 µM [falling, full curve, poor fit]
Cc1ccc(O)c(NC(=O)COc2cc(C)ccc2C)c1 | – | 4.11 µM [rising, single point] | –
CCn1cc(C(=O)NCc2ccc3c(c2)OCO3)c(=O)c2cc(S(=O)(=O)N3CCOCC3)ccc21 | – | 0.411 µM [falling, full curve, poor fit] | 0.411 µM [falling, full curve, poor fit]

From PubChem BioAssay AID2685 (National Center for Advancing Translational Sciences (NCATS), 2010)
